Data: the supplement of paper PMC10735217
Some of the results follow. Repeats in this data set agree poorly, so a single value says little.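 In a drug-repurposing library screen, luminescence reads luciferase driven by eight TEAD-binding elements, stably integrated into human kidney-derived cells. Compounds scoring over five robust Z scores above the plate mean are called hits.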

Test system: HEK293A TEAD-LUC reporter
Test: TEAD-luciferase reporter activity (YAP activation), robust Z score vs plate; higher = stronger YAP/TEAD activation
Details: 24 h

CCOc1ncc(S(=O)(=O)N2CCN(CC)CC2)cc1-c1nc2c(CC)n(CCOC)nc2c(=O)[nH]1 [gisadenafil]
TEAD-luciferase reporter activity (compound concentration: 200 nM): inactive: -0.987 | TEAD-luciferase reporter activity (compound concentration: 2 uM): inactive: -1.63 | TEAD-luciferase reporter activity (compound concentration: 10 uM): inactive: -0.576

Cn1nccc1-c1ccc(Sc2cccc(C3(C(N)=O)CCOCC3)c2)cc1
TEAD-luciferase reporter activity (compound concentration: 200 nM): inactive: -1.49 | TEAD-luciferase reporter activity (compound concentration: 2 uM): inactive: -1.57 | TEAD-luciferase reporter activity (compound concentration: 10 uM): inactive: -1.37

CC(=O)Nc1ccc(C(=O)N2CCN(c3cccc(C=O)c3)C(=O)C2)cc1
TEAD-luciferase reporter activity (compound concentration: 200 nM): inactive: 0.368 | TEAD-luciferase reporter activity (compound concentration: 10 uM): inactive: 1.55

Cc1ccc2c(NC[C@](O)(CC(C)(C)c3cc(F)cc4c3OCC4)C(F)(F)F)cccc2n1 [Mapracorat]
TEAD-luciferase reporter activity (compound concentration: 200 nM): inactive: 0.0606 | TEAD-luciferase reporter activity (compound concentration: 10 uM): inactive: -0.422

CCC(CO)NCCNC(CC)CO (stereo not drawn) [Ethambutol]
TEAD-luciferase reporter activity (compound concentration: 200 nM): inactive: 2.02 | TEAD-luciferase reporter activity (compound concentration: 2 uM): inactive: -1.01 | TEAD-luciferase reporter activity (compound concentration: 10 uM): inactive: -1.63

CC1(C)OCC(COC(=O)C(Cc2ccccc2)N[C@@H](Cc2ccccc2)C(=O)NCCC(=O)O)O1 (stereo partly drawn)
TEAD-luciferase reporter activity (compound concentration: 200 nM): inactive: -1.22 | TEAD-luciferase reporter activity (compound concentration: 2 uM): inactive: 0.944 | TEAD-luciferase reporter activity (compound concentration: 10 uM): inactive: -0.687

CC(C)(C)c1cc(SC(Sc2cc(C(C)(C)C)c(O)c(C(C)(C)C)c2)Sc2cc(C(C)(C)C)c(O)c(C(C)(C)C)c2)cc(C(C)(C)C)c1O
TEAD-luciferase reporter activity (compound concentration: 200 nM): inactive: -0.724 | TEAD-luciferase reporter activity (compound concentration: 2 uM): inactive: -1.37 | TEAD-luciferase reporter activity (compound concentration: 10 uM): inactive: 0.31

COc1ccc2nc3c(c(N)c2c1)CCCC3 [7-Methoxytacrine]
TEAD-luciferase reporter activity (compound concentration: 200 nM): inactive: -1.26 | TEAD-luciferase reporter activity (compound concentration: 2 uM): inactive: -0.844 | TEAD-luciferase reporter activity (compound concentration: 10 uM): inactive: -0.847

CC(C)N1CCN(C(=O)c2ccc(OC(=O)C3CCCc4ccccc43)cc2)CC1 (stereo not drawn)
TEAD-luciferase reporter activity (compound concentration: 200 nM): inactive: -0.43 | TEAD-luciferase reporter activity (compound concentration: 2 uM): inactive: -0.648 | TEAD-luciferase reporter activity (compound concentration: 10 uM): inactive: 0.955

COC(=O)C1C(O)CCC2CN3CCc4c([nH]c5ccccc45)C3CC21 (stereo not drawn) [Yohimbine]
TEAD-luciferase reporter activity (compound concentration: 200 nM): inactive: -0.27 | TEAD-luciferase reporter activity (compound concentration: 2 uM): inactive: 0.13 | TEAD-luciferase reporter activity (compound concentration: 10 uM): inactive: 0.295

COCC1=C(C(=O)OC)[C@H](c2ccc(F)c(F)c2)N(C(=O)NCCCN2CCC(c3cccc(NC(C)=O)c3)CC2)C(=O)N1
TEAD-luciferase reporter activity (compound concentration: 200 nM): inactive: 0.625 | TEAD-luciferase reporter activity (compound concentration: 2 uM): inactive: -1.21 | TEAD-luciferase reporter activity (compound concentration: 10 uM): inactive: 0.381

Fc1ccc(C(OCCNCCc2ccccc2)c2ccc(F)cc2)cc1
TEAD-luciferase reporter activity (compound concentration: 200 nM): inactive: 0.258 | TEAD-luciferase reporter activity (compound concentration: 2 uM): inactive: 0.777 | TEAD-luciferase reporter activity (compound concentration: 10 uM): inactive: 0.867

O=C(OCCN1CCOCC1)c1cccnc1Nc1cccc(C(F)(F)F)c1 [morniflumate]
TEAD-luciferase reporter activity (compound concentration: 200 nM): inactive: -1.05 | TEAD-luciferase reporter activity (compound concentration: 2 uM): inactive: 0.581 | TEAD-luciferase reporter activity (compound concentration: 10 uM): inactive: -1.49

OCCN1CCN(CCCN2c3ccccc3Sc3ccc(Cl)cc32)CC1 [Perphenazine]
TEAD-luciferase reporter activity (compound concentration: 2 uM): inactive: -0.671

OCCN1CCN(CCCN2c3ccccc3Sc3ccc(Cl)cc32)CC1
TEAD-luciferase reporter activity (compound concentration: 200 nM): inactive: -1.29 | TEAD-luciferase reporter activity (compound concentration: 10 uM): inactive: 3.25

CCCCC[C@@H](O)[C@H]1C(=O)O[C@H](C)[C@@H](O)/C=C/C=C/C=C/C=C/C=C(C)[C@@H](O)C[C@H](O)C[C@H](O)C[C@H](O)C[C@H](O)C[C@H](O)C[C@@H]1O [filipine]
TEAD-luciferase reporter activity (compound concentration: 200 nM): inactive: -0.847 | TEAD-luciferase reporter activity (compound concentration: 2 uM): inactive: -0.23 | TEAD-luciferase reporter activity (compound concentration: 10 uM): inactive: 0.732

COc1cnc(NS(=O)(=O)c2ccc(N)cc2)nc1
TEAD-luciferase reporter activity (compound concentration: 200 nM): inactive: -0.959 | TEAD-luciferase reporter activity (compound concentration: 2 uM): inactive: -1.29 | TEAD-luciferase reporter activity (compound concentration: 10 uM): inactive: -0.897

CC(=O)N1Cc2ccccc2CC12CCCN(C(=O)CCCN)C2 (stereo not drawn)
TEAD-luciferase reporter activity (compound concentration: 200 nM): inactive: -0.484 | TEAD-luciferase reporter activity (compound concentration: 10 uM): active: 99

CCN(CC)CCCCC1CCN(CC(=O)N2c3ccccc3C(=O)Nc3cccnc32)CC1
TEAD-luciferase reporter activity (compound concentration: 200 nM): inactive: 0.892 | TEAD-luciferase reporter activity (compound concentration: 2 uM): inactive: -1.73 | TEAD-luciferase reporter activity (compound concentration: 10 uM): inactive: 2.06

CCCCOc1ccc(C(=O)OC2CC(C)N(C)CC2C)cc1 (stereo not drawn)
TEAD-luciferase reporter activity (compound concentration: 200 nM): inactive: -0.332 | TEAD-luciferase reporter activity (compound concentration: 2 uM): inactive: -2.29 | TEAD-luciferase reporter activity (compound concentration: 10 uM): inactive: -0.869

CC1(C)C2CCC1(C)C(Cl)C2 (stereo not drawn)
TEAD-luciferase reporter activity (compound concentration: 200 nM): inactive: -0.261 | TEAD-luciferase reporter activity (compound concentration: 2 uM): inactive: -0.538 | TEAD-luciferase reporter activity (compound concentration: 10 uM): inactive: -1.42

Cn1cc(C(F)(F)F)nc1-c1ccc(OCC(O)CNCCOc2ccc(O)c(C(N)=O)c2)cc1 (stereo not drawn)
TEAD-luciferase reporter activity (compound concentration: 200 nM): inactive: -0.0975 | TEAD-luciferase reporter activity (compound concentration: 2 uM): inactive: -1.85 | TEAD-luciferase reporter activity (compound concentration: 10 uM): inactive: 2.23

Cc1coc2c1C(=O)C(=O)c1c-2ccc2c1CCCC2(C)C [Tashi    IIA]
TEAD-luciferase reporter activity (compound concentration: 2 uM): inactive: -0.701

Cc1coc2c1C(=O)C(=O)c1c-2ccc2c1CCCC2(C)C [Tashi IIA]
TEAD-luciferase reporter activity (compound concentration: 200 nM): inactive: -2.11

Cc1coc2c1C(=O)C(=O)c1c-2ccc2c1CCCC2(C)C [Tashi   IIA]
TEAD-luciferase reporter activity (compound concentration: 10 uM): inactive: 2.72

CCN(CC)CCNC1c2ccccc2OCc2ncccc21 (stereo not drawn)
TEAD-luciferase reporter activity (compound concentration: 200 nM): inactive: -0.237 | TEAD-luciferase reporter activity (compound concentration: 2 uM): inactive: 1.05 | TEAD-luciferase reporter activity (compound concentration: 10 uM): inactive: -1.76

CCCCOc1cc(C(=O)NCCN(CC)CC)c2ccccc2n1 [Dibucaine]
TEAD-luciferase reporter activity (compound concentration: 200 nM): active: 9.89 | TEAD-luciferase reporter activity (compound concentration: 2 uM): inactive: 4.28 | TEAD-luciferase reporter activity (compound concentration: 10 uM): inactive: -0.0235

CC(C)[C@H](O)C(=O)N[C@@H](C)C(=O)N[C@@H]1C(=O)N(C)CCc2ccccc21 [Semagacestat]
TEAD-luciferase reporter activity (compound concentration: 2 uM): inactive: -0.419

CC(C)[C@H](O)C(=O)N[C@@H](C)C(=O)N[C@@H]1C(=O)N(C)CCc2ccccc21
TEAD-luciferase reporter activity (compound concentration: 200 nM): inactive: 0.373 | TEAD-luciferase reporter activity (compound concentration: 10 uM): inactive: 0.509

CO/N=C(/C(=O)NC1C(=O)N2C(C(=O)O)=CCSC12)c1csc(NC(=O)C(C)N)n1 (stereo not drawn)
TEAD-luciferase reporter activity (compound concentration: 200 nM): inactive: 1 | TEAD-luciferase reporter activity (compound concentration: 2 uM): inactive: -1.04 | TEAD-luciferase reporter activity (compound concentration: 10 uM): active: 10.6

C=C[C@@H]1C[C@]1(NC(=O)[C@@H]1C[C@@H]2CN1C(=O)[C@H](C(C)(C)C)NC(=O)O[C@@H]1C[C@H]1CCCCCc1nc3ccc(OC)cc3nc1O2)C(=O)NS(=O)(=O)C1CC1
TEAD-luciferase reporter activity (compound concentration: 200 nM): inactive: -1.35 | TEAD-luciferase reporter activity (compound concentration: 2 uM): inactive: 1.66 | TEAD-luciferase reporter activity (compound concentration: 10 uM): inactive: 3.32

Cc1ncc(-c2ccnc(Nc3ccc(S(C)(=O)=O)cc3)n2)n1C(C)C
TEAD-luciferase reporter activity (compound concentration: 200 nM): inactive: -0.638 | TEAD-luciferase reporter activity (compound concentration: 2 uM): inactive: -3.05 | TEAD-luciferase reporter activity (compound concentration: 10 uM): inactive: -0.289

CCOCn1cnc2c1c(=O)n(CCCCC(C)(C)O)c(=O)n2C [Torbafylline]
TEAD-luciferase reporter activity (compound concentration: 200 nM): inactive: -1.01 | TEAD-luciferase reporter activity (compound concentration: 2 uM): inactive: -1.89 | TEAD-luciferase reporter activity (compound concentration: 10 uM): inactive: 4.01

O=C(Nc1ccc(F)cc1)NC1C(=O)N(CC(=O)N2CCCC2)c2ccccc2N(C2CCCCC2)C1=O (stereo not drawn)
TEAD-luciferase reporter activity (compound concentration: 200 nM): inactive: -1.19 | TEAD-luciferase reporter activity (compound concentration: 2 uM): inactive: 0.159 | TEAD-luciferase reporter activity (compound concentration: 10 uM): inactive: 0.619

CC(=N)N1CCC(Oc2ccc(N(Cc3ccc4ccc(C(=N)N)cc4c3)S(=O)(=O)CC(=O)O)cc2)CC1
TEAD-luciferase reporter activity (compound concentration: 200 nM): inactive: -0.422 | TEAD-luciferase reporter activity (compound concentration: 2 uM): inactive: 0.0159 | TEAD-luciferase reporter activity (compound concentration: 10 uM): inactive: -1.26

CC(C)NC(=O)c1cnc2n1CCc1ccccc1C21CCNCC1
TEAD-luciferase reporter activity (compound concentration: 200 nM): inactive: -0.546 | TEAD-luciferase reporter activity (compound concentration: 2 uM): inactive: 3.59 | TEAD-luciferase reporter activity (compound concentration: 10 uM): inactive: -0.318
